Results are given in words; binding and its absence hold for the method and conditions named. Some entries that bind do so weakly or less than the wild type.
Molecular target: SMO (smoothened) protein (Homo sapiens (Human)) (UniProt Q99835)
Experiment: flow cytometry on HCT116 cells, 10 µg antibody, Alexa 594 secondary antibody

Protein sequences, listed by entry. Tags and fused reporters are not part of them. Lines headed by an entry give the natural chain unless they say otherwise; changes in a name come on top.
UniProt Q99835: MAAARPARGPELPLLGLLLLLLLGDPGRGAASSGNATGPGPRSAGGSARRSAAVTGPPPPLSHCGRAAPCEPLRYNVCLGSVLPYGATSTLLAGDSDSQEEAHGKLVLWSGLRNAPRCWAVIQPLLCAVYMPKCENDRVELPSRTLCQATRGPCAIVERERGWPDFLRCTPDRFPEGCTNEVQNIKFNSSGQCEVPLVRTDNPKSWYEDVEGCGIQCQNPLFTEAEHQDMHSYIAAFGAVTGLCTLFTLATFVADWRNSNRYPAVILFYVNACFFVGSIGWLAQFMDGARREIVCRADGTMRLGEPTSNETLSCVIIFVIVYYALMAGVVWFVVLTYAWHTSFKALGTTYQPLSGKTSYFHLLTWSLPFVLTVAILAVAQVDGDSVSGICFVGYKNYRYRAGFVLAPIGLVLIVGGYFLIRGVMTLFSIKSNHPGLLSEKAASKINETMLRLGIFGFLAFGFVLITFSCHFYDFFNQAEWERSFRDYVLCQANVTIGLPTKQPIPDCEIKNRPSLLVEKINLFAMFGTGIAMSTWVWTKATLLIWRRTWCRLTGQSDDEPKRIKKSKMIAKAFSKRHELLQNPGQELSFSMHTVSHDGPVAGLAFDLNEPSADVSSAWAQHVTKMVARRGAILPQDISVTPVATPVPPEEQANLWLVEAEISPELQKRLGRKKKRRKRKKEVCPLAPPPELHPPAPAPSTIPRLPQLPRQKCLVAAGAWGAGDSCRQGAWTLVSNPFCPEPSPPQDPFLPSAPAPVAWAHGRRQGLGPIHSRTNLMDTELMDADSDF

B1: #47-7 antibody (IgG form) (antibody, V domains shown)
VH: QVQLVQSGGGVVQPGSSLRLSCEASGFAIGDNALNWVRQAPGKGLEWVGYIRSNSYGGTAEYAASVKGRFTISKDESKNIAYLEMNSLRAEDTAVYYCARRAHHYGGSTYNPSWYFDLWGRGTLVTVSS
VL: EIVLTQSPSFLSASVGDRVTITCRASQDISRRLAWYQQKPGKAPKLLIYGASNLASGVPSRFTGSGSGTEFTLTISSLQPDDFATYYCQQGYSSPRTFGQGTKVDIK
binding: binds
